In patent publication US8182809:
Results are given in words; binding and its absence hold for the method and conditions named. For some assays here: In cells and extracts the contact can be indirect. Some results given as binding are weak or reduced against the parent protein; the word gives no strength. For some assays here: Sequences can lack the tags named with a protein. Each block holds one binder with its values, some of them ahead of it.

Tests used:
[1] = molecular target: T1, ERp5 (protein disulphide isomerase, also called P5) co-precipitated from TRAMP-C2 cells (UniProt Q922R8); experiment: co-immunoprecipitation with mAb 6D4.6 from surface-biotinylated TRAMP-C2 cells, blot with anti-ERp5 ab11432
T1 sequence (looked up): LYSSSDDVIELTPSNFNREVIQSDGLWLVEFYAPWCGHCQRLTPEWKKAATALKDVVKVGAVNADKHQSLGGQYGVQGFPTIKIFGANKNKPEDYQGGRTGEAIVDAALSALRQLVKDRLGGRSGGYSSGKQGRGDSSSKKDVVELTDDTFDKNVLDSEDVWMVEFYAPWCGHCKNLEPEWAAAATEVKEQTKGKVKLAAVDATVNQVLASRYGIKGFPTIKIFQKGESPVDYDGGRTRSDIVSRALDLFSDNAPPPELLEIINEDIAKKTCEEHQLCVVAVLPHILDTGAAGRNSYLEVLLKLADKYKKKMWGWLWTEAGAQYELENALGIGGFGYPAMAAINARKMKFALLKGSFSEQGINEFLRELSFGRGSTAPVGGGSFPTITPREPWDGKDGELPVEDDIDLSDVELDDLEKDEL

[2] = molecular target: T2, full-length human MICB (allele 0101) expressed on TRAMP-C2 cells (human) (UniProt Q29980); experiment: flow cytometry (MFI) on TC2-MICB cells
T2 sequence: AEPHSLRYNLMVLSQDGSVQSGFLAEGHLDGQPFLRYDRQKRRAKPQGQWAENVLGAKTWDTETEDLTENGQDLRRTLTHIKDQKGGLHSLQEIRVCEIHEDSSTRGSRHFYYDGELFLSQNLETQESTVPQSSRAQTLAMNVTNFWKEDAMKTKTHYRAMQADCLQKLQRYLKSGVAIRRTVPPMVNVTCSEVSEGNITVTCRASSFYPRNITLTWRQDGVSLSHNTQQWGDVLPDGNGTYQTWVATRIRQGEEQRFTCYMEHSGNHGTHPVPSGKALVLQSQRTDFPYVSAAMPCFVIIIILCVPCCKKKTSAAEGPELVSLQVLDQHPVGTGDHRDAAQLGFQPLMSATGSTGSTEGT

[3] = molecular target: T2, full-length human MICB (allele 0101) expressed on TRAMP-C2 cells (human); experiment: flow cytometry on TC2-MICB cells, 10 µg/ml smNKG2D-Fc, PE anti-human IgG
[4] = molecular target: T3, mouse NKG2D receptor on NK cells of SCID mice (mouse) (UniProt O54709); experiment: ex vivo competitive binding assay, NK cells of mice bearing TC2-MICB tumors; competitor rsMICB-FLAG
T3 sequence (looked up): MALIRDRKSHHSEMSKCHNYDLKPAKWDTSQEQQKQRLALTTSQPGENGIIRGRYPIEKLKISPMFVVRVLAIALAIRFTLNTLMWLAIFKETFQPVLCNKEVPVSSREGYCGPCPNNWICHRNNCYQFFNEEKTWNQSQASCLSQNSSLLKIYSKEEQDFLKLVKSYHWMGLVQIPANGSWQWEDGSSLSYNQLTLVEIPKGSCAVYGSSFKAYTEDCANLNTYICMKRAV

[5] = molecular target: T3, mouse NKG2D receptor on NK cells of SCID mice (mouse); experiment: ex vivo competitive binding assay on splenic NK cells of tumor-bearing mice; competitor rsMICB-FLAG

binding [1]: binds
B1: wild-type human MICA*01 (wtMICA) expressed on TRAMP-C2 or C1R cells (ligand)
chain: EPHSLRYNLTVLSWDGSVQSGFLTEVHLDGQPFLRCDRQKCRAKPQGQWAEDVLGNKTWDRETRDLTGNGKDLRMTLAHIKDQKEGLHSLQEIRVCEIHEDNSTRSSQHFYYDGELFLSQNLETKEWTMPQSSRAQTLAMNVRNFLKEDAMKTKTHYHAMHADCLQELRRYLKSGVVLRRTVPPMVNVTRSEASEGNITVTCRASGFYPWNITLSWRQDGVSLSHDTQQWGDVLPDGNGTYQTWVATRICQGEEQRFTCYMEHSGNHSTHPVPSGKVLVLQSHWQTFHVSAVAAAAIFVIIIFYVRCCKKKTSAAEGPELVSLQVLDQHPVGTSDHRDATQLGFQPLMSDLGSTGSTEGA

binding [2]: binds
binding [3]: binds
B2: fusion protein of recombinant soluble mouse NKG2D and human Fc (smNKG2D-Fc, R&D Systems) (Fc fusion, UniProt O54709 94-232, looked up, not shown: a dimerising Fc or GST)
chain: FQPVLCNKEVPVSSREGYCGPCPNNWICHRNNCYQFFNEEKTWNQSQASCLSQNSSLLKIYSKEEQDFLKLVKSYHWMGLVQIPANGSWQWEDGSSLSYNQLTLVEIPKGSCAVYGSSFKAYTEDCANLNTYICMKRAV

binding [4]: binds
binding [5]: binds
B3: soluble MICB resulting from shedding by TC2-MICB tumor cells (ssMICB) (ligand, human, UniProt Q29980 23-299, looked up)
chain: AEPHSLRYNLMVLSQDGSVQSGFLAEGHLDGQPFLRYDRQKRRAKPQGQWAENVLGAKTWDTETEDLTENGQDLRRTLTHIKDQKGGLHSLQEIRVCEIHEDSSTRGSRHFYYDGELFLSQNLETQESTVPQSSRAQTLAMNVTNFWKEDAMKTKTHYRAMQADCLQKLQRYLKSGVAIRRTVPPMVNVTCSEVSEGNITVTCRASSFYPRNITLTWRQDGVSLSHNTQQWGDVLPDGNGTYQTWVATRIRQGEEQRFTCYMEHSGNHGTHPVPSGK
